Measurements taken from PubChem BioAssay AID485353 (National Center for Advancing Translational Sciences (NCATS), 2010).
Among all 330,000 compounds or so, about 610 (0.18%) were called active. The shares of active, inactive and inconclusive entries below differ from those in the screen. Calls come from the whole dose curve. A potency beside an inconclusive call is a rough fit, not a confirmed value.
Potency is the fitted concentration of half-maximal effect.

Assay: qHTS of Yeast-based Assay for SARS-CoV PLP; note: nearly all actives have a fitted effect of over 55% in size
Details: S. cerevisiae expressing SARS-CoV PLpro; Potency: growth rescue; series mostly up to 32.9 µM
For Cc1ccc(NC(=S)NNC(=O)C2CC2c2ccc(C)cc2)cc1 (configuration not stated), the Potency was inconclusive: 20 µM [activator, single point]. For Cc1cc(C(=O)NNC(=O)c2ccc(S(=O)(=O)N(C)C)cc2)c(C)o1, the Potency was active: 2.51 µM. For Oc1cccc(C(=S)N2CCN(Cc3ccccc3)CC2)c1, the Potency was inconclusive: 4.47 µM [activator, single point]. For CCN(CC)c1ccc(/C=N/Nc2nc(C)cc(=O)[nH]2)c(O)c1, the Potency was active: 4.47 µM. With COc1cc(OCC(N)=O)cc(OC)c1OC the Potency was inconclusive: 0.282 µM [activator, partial curve, poor fit]. With Cn1c(=O)[nH]c(=O)c2c1nc(N1CCCC1)n2CC(O)COc1ccccc1 (configuration not stated) the Potency was “inactive”. In the case of C/C(=N\NC(=O)Cc1cc(=O)[nH][nH]1)c1cccc([N+](=O)[O-])c1, the Potency is reported as inconclusive: 20 µM [activator, single point]. For O=C1C(Br)=Cc2cccc3cccc1c23, the Potency was “inactive”. With CC(=O)Nc1ccc(SCC(=O)N(C)C2CCS(=O)(=O)C2)cc1 (configuration not stated) the Potency was “inactive”. With c1ccn2c(SCc3cn4ccsc4n3)nnc2c1 the Potency was “inactive”. With CC(=O)NC(c1cc(Cl)c2cccnc2c1O)C1CC1 (configuration not stated) the Potency was inconclusive: 2.82 µM [activator, single point]. With CC(C#Cc1ccc2c(c1)COc1c3ccccc3nn1-2)OC(C)(C)C (configuration not stated) the Potency was “inactive”. With Cc1c(C(=O)NCCSCc2c(Cl)cccc2Cl)cccc1[N+](=O)[O-] the Potency was “inactive”. In the case of CC(=O)Nc1ccc(OCC(O)CN2CCN(c3ccc(F)cc3)CC2)cc1 (configuration not stated), the Potency is reported as inconclusive: 0.398 µM [activator, full curve]. In the case of S=C(c1ccc(-c2ccc(Cl)cc2)o1)N1CCCCC1, the Potency is reported as “inactive”. For COc1ccc(C(c2c(C)[nH]n(-c3ccccc3)c2=O)c2c(C)[nH]n(-c3ccccc3)c2=O)cc1OC, the Potency was active: 12.6 µM. With Cc1cc2oc(C(=O)Nc3nonc3C)c(C)c2cc1Cl the Potency was inconclusive: 3.16 µM [activator, single point]. With Cc1cc(NC(=O)c2ccccc2F)on1 the Potency was “inactive”. In the case of CCOC(=O)c1sc(N2C(=O)C(O)=C(C(=O)c3ccco3)C2c2cccc([N+](=O)[O-])c2)nc1C (configuration not stated), the Potency is reported as inconclusive: 22.4 µM [activator, single point]. With Cn1c(=O)c2c(ncn2CC(=O)N/N=C/C(Cl)=C/c2ccccc2)n(C)c1=O the Potency was inconclusive: 11.2 µM [activator, partial curve, poor fit]. In the case of Cn1nc([N+](=O)[O-])nc1Sc1ccc(C(C)(C)C)cc1, the Potency is reported as inconclusive: 3.98 µM [activator, single point]. With Cc1onc(-c2c(F)cccc2Cl)c1C(N)=S the Potency was “inactive”.
